Reference: patent publication US20080312162A1, “Methods and Compositions for Enzyme-Specific Activation of Carbohydrate-Conjugated Prodrugs” (THE OHIO STATE UNIVERSITY, priority 2004, published 2008)
Some of these results come from one statement about several compounds together. At least one compound was matched to its structure with a doubt left.

Tested on: SW620, HT29 and K562
Assay: Beta-galactosidase cleavage assay
Type: cell-based, human
Conditions: for Effect of beta-galactosidase treatment on activity: 2 units beta-galactosidase; for Activity after cleavage by galactosidase compared with GA: after beta-galactosidase cleavage
Procedure: Thus, galactose-GA and lactose-GA conjugates were exposed to beta-galactosidase and observed for enhancement of anticancer activities. […] For compounds 25-29, 1 μM concentration of prodrug compounds were used. GA (0.01 μM), compound 24 (0.1 μM) and beta-galactosidase (2 units) was used in the cell culture. Each bar in the graphs shown is the average of three experiments. Relative percentage of cell growth was calculated compared to control cells in the absence of beta-galactosidase and drug solution. Cell lines SW620, HT29 and K562 were exposed to 2 units of beta-galactosidase and then treated individually with 1 μM of compounds 25-29. At this concentration, galactose-geldanamycin conjugates alone were relatively devoid of anticancer activity.
Beta-galactosidase cleavage assay. Cells (2,000-10,000) were seeded in 96 well plates in RPMI-1640 and incubated for 24 hours. The exponentially growing cancer cells were incubated with 2 units of beta-galactosidase for 10 minutes. The same concentration solutions of various compounds (25-29) were added to each well. The control cells were exposed to fresh medium only or to beta-galactosidase alone. After incubated for 72 hours at 37° C. (5% CO2, 100% humidity), the cell growth was measured with MTS assay as described above. The percentages of cell growth of tested compounds vs. control were calculated by measuring the absorbance at 490 nm.

SMILES | Effect of beta-galactosidase treatment on activity | Activity after cleavage by galactosidase compared with GA
COC1C=CC=C(C)C(=O)NC2=CC(=O)C(NCCOC3OC(CO)C(OC4OC(CO)C(O)C(O)C4O)C(O)C3O)=C(CC(C)CC(OC)C(O)C(C)C=C(C)C1OC(N)=O)C2=O (stereo not drawn) [compound 29, 17-demethoxy-17-[(2-β-lactopyranosylethyl)amino]geldanamycin] | dramatically increased | nearly the same activity as GA
COC1C=CC=C(C)C(=O)NC2=CC(=O)C(NCCCOC3OC(CO)C(O)C(O)C3O)=C(CC(C)CC(OC)C(O)C(C)C=C(C)C1OC(N)=O)C2=O (stereo not drawn) [compound 26] | dramatically increased | nearly the same activity as GA
COC1C=CC=C(C)C(=O)NC2=CC(=O)C(NCCCCCOC3OC(CO)C(O)C(O)C3O)=C(CC(C)CC(OC)C(O)C(C)C=C(C)C1OC(N)=O)C2=O (stereo not drawn) [compound 27] | dramatically increased | nearly the same activity as GA
